According to paper PMC1249560:
No constants are given. Whether binding was seen depends on the method and setting. Binding seen in cells or lysates may run through a third protein. A result given as binding can be weak or reduced; the word gives no strength.

Target: T1, Hermansky-Pudlak syndrome type-3 protein (HPS3) (human (endogenous in primary epidermal melanocytes)) (UniProt Q969F9)
T1 sequence: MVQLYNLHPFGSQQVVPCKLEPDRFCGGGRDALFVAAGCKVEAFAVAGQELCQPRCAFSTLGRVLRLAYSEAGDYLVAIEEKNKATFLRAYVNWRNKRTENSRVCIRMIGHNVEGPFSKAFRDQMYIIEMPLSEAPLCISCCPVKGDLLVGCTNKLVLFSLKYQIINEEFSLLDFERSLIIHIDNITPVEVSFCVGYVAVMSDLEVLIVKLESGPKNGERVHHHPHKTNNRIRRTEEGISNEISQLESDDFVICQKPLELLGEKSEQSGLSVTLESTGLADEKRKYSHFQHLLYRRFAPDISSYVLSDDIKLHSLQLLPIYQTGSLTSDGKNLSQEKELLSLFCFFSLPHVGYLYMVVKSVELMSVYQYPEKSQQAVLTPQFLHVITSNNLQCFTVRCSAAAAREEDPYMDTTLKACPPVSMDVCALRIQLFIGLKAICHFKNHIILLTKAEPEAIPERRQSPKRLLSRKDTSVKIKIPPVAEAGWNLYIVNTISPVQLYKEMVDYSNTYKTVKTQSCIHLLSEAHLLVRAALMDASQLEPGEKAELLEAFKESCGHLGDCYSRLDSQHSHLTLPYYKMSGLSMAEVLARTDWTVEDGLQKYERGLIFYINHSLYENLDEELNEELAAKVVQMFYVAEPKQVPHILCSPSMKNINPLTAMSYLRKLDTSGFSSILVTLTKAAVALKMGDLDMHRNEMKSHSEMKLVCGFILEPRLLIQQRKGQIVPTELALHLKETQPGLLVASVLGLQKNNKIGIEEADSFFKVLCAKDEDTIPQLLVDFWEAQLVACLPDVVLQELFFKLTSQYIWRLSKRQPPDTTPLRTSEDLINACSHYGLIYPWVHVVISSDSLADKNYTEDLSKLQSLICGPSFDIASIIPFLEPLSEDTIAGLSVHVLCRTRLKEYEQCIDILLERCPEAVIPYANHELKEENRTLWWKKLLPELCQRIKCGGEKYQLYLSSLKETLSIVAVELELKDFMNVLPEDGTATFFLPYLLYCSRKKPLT
Assay: co-IP; lysates of normal human melanocytes in PBS with 1% NP-40 and protease inhibitors; precipitated with rabbit polyclonal HPS3 peptide antibody and protein A/G agarose; blotted with mouse monoclonal anti-clathrin heavy chain antibodies; HPS3 null melanocyte lysate as control

binding: binds
Substance: clathrin (detected by antibodies to its heavy chain)
